Reference: article PMC11736057
No constants are given. Whether binding was seen depends on the method and setting. Some entries that bind do so weakly or less than the wild type.

Target: T1, E. coli aminomethyltransferase (T-protein) (E. coli) (UniProt P27248)
T1 sequence: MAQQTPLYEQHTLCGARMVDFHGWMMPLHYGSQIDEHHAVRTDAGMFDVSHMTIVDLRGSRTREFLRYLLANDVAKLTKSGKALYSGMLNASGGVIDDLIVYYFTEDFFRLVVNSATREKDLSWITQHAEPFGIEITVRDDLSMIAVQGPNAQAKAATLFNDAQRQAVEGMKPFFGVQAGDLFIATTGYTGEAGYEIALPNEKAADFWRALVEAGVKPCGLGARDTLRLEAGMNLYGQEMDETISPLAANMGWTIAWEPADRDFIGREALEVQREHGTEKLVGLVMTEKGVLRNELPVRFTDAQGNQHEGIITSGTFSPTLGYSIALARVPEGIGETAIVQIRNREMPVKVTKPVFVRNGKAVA
Assay: co-purification on Ni-NTA; His-tagged T-protein captured from clarified E. coli lysate on Ni-NTA; 50 mM HEPES pH 7.5, 250 mM KCl; imidazole step gradient, 50 mM and 100 mM imidazole fractions combined; desalted

binding: binds
B1: H-protein of the glycine cleavage system (protein, UniProt P0A6T9 1-129)
chain: MSNVPAELKYSKEHEWLRKEADGTYTVGITEHAQELLGDMVFVDLPEVGATVSAGDDCAVAESVKAASDIYAPVSGEIVAVNDALSDSPELVNSEPYAGGWIFKIKASDESELESLLDATAYEALLEDE
